Results are given in words; binding and its absence hold for the method and conditions named. For part of these data: Binding seen in cells or lysates may run through a third protein. For part of these data: Binding calls can cover weak binding; strength is not graded here. For part of these data: Sequences can lack the tags named with a protein.
What was measured:
[1] = molecular target: T1, Human VPS4A-FLAG (human) (UniProt Q9UN37); assay: co-IP; anti-FLAG (M2) on Protein G Dynabeads from lysates of co-transfected HEK293FT cells, 48 h; lysis buffer 50 mM Tris-HCl pH 8.0, 150 mM NaCl, 5 mM EDTA, 0.5% NP-40; 1 h at room temperature; immunoblot
T1 sequence: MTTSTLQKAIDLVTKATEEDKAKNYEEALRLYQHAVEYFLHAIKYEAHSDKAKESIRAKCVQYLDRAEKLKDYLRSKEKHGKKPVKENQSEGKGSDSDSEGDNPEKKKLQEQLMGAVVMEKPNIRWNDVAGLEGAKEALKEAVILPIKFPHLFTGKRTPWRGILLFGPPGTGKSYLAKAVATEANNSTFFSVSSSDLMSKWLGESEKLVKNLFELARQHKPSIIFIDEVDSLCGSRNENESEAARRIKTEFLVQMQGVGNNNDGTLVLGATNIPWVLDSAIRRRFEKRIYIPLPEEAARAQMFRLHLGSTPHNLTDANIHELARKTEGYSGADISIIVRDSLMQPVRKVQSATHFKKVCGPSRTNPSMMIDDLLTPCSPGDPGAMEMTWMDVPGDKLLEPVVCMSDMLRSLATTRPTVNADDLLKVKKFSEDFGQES

[2] = molecular target: T2, VPS4A MIT domain (residues 1–84) (human) (UniProt Q9UN37); assay: ITC; titrants (GST-pUL71, GST-CHMP6 or peptides) titrated into VPS4A MIT domain in the cell; 25°C; 50 mM HEPES pH 8, 100 mM NaCl, 0.5 mM TCEP; 19×2 μL or 12×3 μL injections; one-site binding model; both purified
T2 sequence: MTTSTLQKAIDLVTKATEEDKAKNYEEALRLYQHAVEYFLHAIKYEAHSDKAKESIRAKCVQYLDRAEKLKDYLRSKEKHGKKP

Q: HCMV pUL71 P315A+P318A (PPAA) was tested. Which binding [1] did it give?
A: no binding

Q: Which binding [2] does the source give for “GST-pUL71(283–361) PPAA (domain or fragment)” here?
A: no binding

Q: Which binding [1] does the source give for HCMV pUL71 P315A here?
A: binds

Q: Which binding [1] does the source give for “C-terminally HA-tagged EBV BSRF1 (Epstein Barr virus (EBV))” here?
A: no binding

Q: How did the binding [2] turn out when “GST-pUL71 (310–336) (domain or fragment)” was run?
A: no binding

Q: HCMV pUL71 P318A was tested. Which binding [1] did it give?
A: binds

Q: “C-terminally HA-tagged HCMV pUL71 (human cytomegalovirus (HCMV))” was tested. Which binding [1] did it give?
A: binds

Q: How did the binding [1] turn out when HCMV pUL71 (wild type, full length) was run?
A: binds

Q: How did the binding [1] turn out when HCMV pUL71 V317D was run?
A: no binding

From publication PMC11218997, “Human cytomegalovirus deploys molecular mimicry to recruit VPS4A to sites of virus assembly” (PLOS Pathogens, 2024)
